Experimental data: PubChem BioAssay AID1671195 (Yale University, 2021)

Assay: 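Genes whose knockdown alters LDL uptake in liver cancer cells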 (primary screen)
Cells: human Huh7 hepatoma cells
Reagent: siRNA pool against human genes, 18 nM
Duration: about 2 to 2.5 days of knockdown, then 8 h LDL uptake
Conditions: DiI-labelled LDL at 30 µg/ml for 8 h, in lipoprotein-deficient serum medium
Read-out: 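Per-cell DiI-LDL intensity by automated imaging; well means scaled to the plate median and given as a robust z-score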
Reading the numbers: robust z-score: higher = more LDL uptake after knockdown
Hit rule: 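a gene counts as active if at least two replicate z-scores exceed ±2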
Shown is an unselected part of about 22,000 deposited reagents. In the full data, about 1,510 (6.9%) were called active. 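Active includes knockdowns raising or lowering LDL uptake; positive z-scores mean more uptake, negative mean less.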

What is on record for GAR1 (GAR1 ribonucleoprotein)?
robust z-score, replicate 1: -0.425; robust z-score, replicate 2: -0.484; robust z-score, replicate 3: 0.934; activity call: inactive

For PLEKHB2 (pleckstrin homology domain containing B2), what was measured?
robust z-score, replicate 1: -0.65; robust z-score, replicate 2: -1.7; robust z-score, replicate 3: 0.373; activity call: inactive

Which result is listed for TMPRSS15 (transmembrane serine protease 15)?
robust z-score, replicate 1: -0.778; robust z-score, replicate 2: -1.07; robust z-score, replicate 3: -0.455; activity call: inactive

What did the screen give for PIGV (phosphatidylinositol glycan anchor biosynthesis class V)?
robust z-score, replicate 1: 0.873; robust z-score, replicate 2: -1.37; robust z-score, replicate 3: 0.466; activity call: inactive

How did the screen score SNW1 (SNW domain containing 1)?
robust z-score, replicate 1: -0.934; robust z-score, replicate 2: -0.771; robust z-score, replicate 3: -1.2; activity call: inactive

With MTIF3 (mitochondrial translational initiation factor 3), how do the results read?
robust z-score, replicate 1: 1.05; robust z-score, replicate 2: 1.02; robust z-score, replicate 3: 1.44; activity call: inactive

What did the screen give for APOBEC4?
robust z-score, replicate 1: -0.13; robust z-score, replicate 2: -0.6; robust z-score, replicate 3: -0.995; activity call: inactive

What is on record for ACTN4 (actinin alpha 4)?
robust z-score, replicate 1: -1.65; robust z-score, replicate 2: -1.7; robust z-score, replicate 3: -0.675; activity call: inactive

Which result is listed for PNO1 (partner of NOB1 homolog)?
robust z-score, replicate 1: -1.29; robust z-score, replicate 2: 0.34; robust z-score, replicate 3: -0.656; activity call: inactive

How did the screen score PTPRR (protein tyrosine phosphatase receptor type R)?
robust z-score, replicate 1: -2.2; robust z-score, replicate 2: -1.97; robust z-score, replicate 3: -2.39; activity call: active

Which result is listed for KIF16B (kinesin family member 16B)?
robust z-score, replicate 1: 0.203; robust z-score, replicate 2: -1.11; robust z-score, replicate 3: 0.209; activity call: inactive

With WDR47 (WD repeat domain 47), what does the deposit list?
robust z-score, replicate 1: 0.949; robust z-score, replicate 2: 0.835; robust z-score, replicate 3: 0.792; activity call: inactive

How did the screen score CD22 (CD22 molecule)?
robust z-score, replicate 1: 0.516; robust z-score, replicate 2: -0.0214; robust z-score, replicate 3: -0.265; activity call: inactive

What did the screen give for COMMD7 (COMM domain containing 7)?
robust z-score, replicate 1: 4.11; robust z-score, replicate 2: 5.03; robust z-score, replicate 3: 4.76; activity call: active

What is on record for KLK5 (kallikrein related peptidase 5)?
robust z-score, replicate 1: 0.221; robust z-score, replicate 2: 0.175; robust z-score, replicate 3: 0.794; activity call: inactive

For CMTM5 (CKLF like MARVEL transmembrane domain containing 5), what was measured?
robust z-score, replicate 1: 2.73; robust z-score, replicate 2: 3.46; robust z-score, replicate 3: 3.32; activity call: active

For ASB13 (ankyrin repeat and SOCS box containing 13), how do the results read?
robust z-score, replicate 1: 0.139; robust z-score, replicate 2: 0.354; robust z-score, replicate 3: 0.103; activity call: inactive

With THUMPD2 (THUMP domain 2 tRNA and snRNA guanosine methyltransferase), what was measured?
robust z-score, replicate 1: 3.26; robust z-score, replicate 2: 3.6; robust z-score, replicate 3: 3.59; activity call: active

With LOC440029 (retired record), how do the results read?
robust z-score, replicate 1: 1.62; robust z-score, replicate 2: 1.88; robust z-score, replicate 3: 0.767; activity call: inactive

For LOC388922 (retired record), how do the results read?
robust z-score, replicate 1: -0.157; robust z-score, replicate 2: 0.164; robust z-score, replicate 3: 0.00468; activity call: inactive

What is on record for INSIG1 (insulin induced gene 1)?
robust z-score, replicate 1: 0.398; robust z-score, replicate 2: -1.09; robust z-score, replicate 3: -0.174; activity call: inactive

With GCNT1 (glucosaminyl (N-acetyl) transferase 1), what was measured?
robust z-score, replicate 1: 0.915; robust z-score, replicate 2: 2.14; robust z-score, replicate 3: 1.26; activity call: inactive

How did the screen score LINC02138 (long independently transcribed non-coding RNA 2138)?
robust z-score, replicate 1: 5.6; robust z-score, replicate 2: 5.46; robust z-score, replicate 3: 5.53; activity call: active

For CLEC12B (C-type lectin domain family 12 member B), how do the results read?
robust z-score, replicate 1: 1.09; robust z-score, replicate 2: 1.26; robust z-score, replicate 3: 1.5; activity call: inactive

Copied from the list.
Entry for GCNT1 (glucosaminyl (N-acetyl) transferase 1) in “robust z-score, replicate 2”: 2.14
For “robust z-score, replicate 2”, CD22 (CD22 molecule) shows -0.0214
